Data source: PubChem BioAssay AID504804 (Drosophila RNAi Screening Center, 2011)

- Assay: 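Knock-downs shielding fly cells from apoptosis caused by DNA damage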 (primary screen)
- Cell system: Drosophila Kc cells
- Knock-down reagent: long dsRNA against Drosophila genes, 0.5 µg dsRNA per well
- Timing: 96 h (48 h knock-down, then 48 h drug)
- Treatment: doxorubicin 5 µg/ml for 48 h, added 48 h after dsRNA
- Read-out: 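Luminescent ATP counts per replicate, not normalised, reflecting viable cells after 48 h dsRNA knock-down followed by 48 h of 5 µg/ml doxorubicin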
- Reading the numbers: raw ATP luminescence: higher = more viable cells, protection from doxorubicin
- Rule for the call: 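z-score of 2 or more over plate mean in both duplicates, retained only when retests and separate dsRNAs confirm the protection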
The screen tested about 19,000 reagents; shown is an unselected part of those that have a named target and a result. Over the whole deposit, 47 (0.25%) got an active call. 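Signals are raw, not normalised; exact z-scores behind calls not deposited; actives needed confirmation, so some wells reaching 2 SD are inactive.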 Unmarked entries are inactive. Reagents against one gene are numbered here. A plus sign joins genes that one reagent is predicted to hit.

Against CG10417, the entry reads raw ATP luminescence, replicate 1 = 72103; raw ATP luminescence, replicate 2 = 68737.
For ZC3H3 the deposit lists raw ATP luminescence, replicate 1 = 65880; raw ATP luminescence, replicate 2 = 66150.
Depletion of PolQ gave: raw ATP luminescence, replicate 1 = 50680; raw ATP luminescence, replicate 2 = 36570.
REPTOR showed raw ATP luminescence, replicate 1 = 43230; raw ATP luminescence, replicate 2 = 26043.
Silencing of Ipp resulted in: raw ATP luminescence, replicate 1 = 1.51e5; raw ATP luminescence, replicate 2 = 88530.
Depletion of TrissinR #1 resulted in: raw ATP luminescence, replicate 1 = 25443; raw ATP luminescence, replicate 2 = 29513.
After knock-down of TrissinR #2, the screen gave raw ATP luminescence, replicate 1 = 24270; raw ATP luminescence, replicate 2 = 23207.
TrissinR #3 gave raw ATP luminescence, replicate 1 = 29513; raw ATP luminescence, replicate 2 = 27523.
CG10657 scored raw ATP luminescence, replicate 1 = 37653; raw ATP luminescence, replicate 2 = 34623.
Depletion of Slik resulted in: raw ATP luminescence, replicate 1 = 75270; raw ATP luminescence, replicate 2 = 55550.
For HemK2 + Snapin, the values are raw ATP luminescence, replicate 1 = 98550; raw ATP luminescence, replicate 2 = 64050.
CG5555 scored raw ATP luminescence, replicate 1 = 66027; raw ATP luminescence, replicate 2 = 55470.
After knock-down of SIDL, the record shows raw ATP luminescence, replicate 1 = 46827; raw ATP luminescence, replicate 2 = 22990.
Against mTTF the deposit lists raw ATP luminescence, replicate 1 = 63450; raw ATP luminescence, replicate 2 = 95537.
After knock-down of CG11808 the results were raw ATP luminescence, replicate 1 = 65113; raw ATP luminescence, replicate 2 = 68520.
For mthl14, the values are raw ATP luminescence, replicate 1 = 1.35e5; raw ATP luminescence, replicate 2 = 1.58e5.
Pglym87 scored raw ATP luminescence, replicate 1 = 53277; raw ATP luminescence, replicate 2 = 25677.
For Alas the deposit lists raw ATP luminescence, replicate 1 = 66003; raw ATP luminescence, replicate 2 = 73753.
CG7990 showed raw ATP luminescence, replicate 1 = 1.47e5; raw ATP luminescence, replicate 2 = 1.67e5.
CG10553 showed raw ATP luminescence, replicate 1 = 70610; raw ATP luminescence, replicate 2 = 61880.
For Ravus the deposit lists raw ATP luminescence, replicate 1 = 79110; raw ATP luminescence, replicate 2 = 54290.
With knock-down of CG11523, the record shows raw ATP luminescence, replicate 1 = 23750; raw ATP luminescence, replicate 2 = 23573.
Against CG6878, the values are raw ATP luminescence, replicate 1 = 89763; raw ATP luminescence, replicate 2 = 67530.
CG32066 #1 showed raw ATP luminescence, replicate 1 = 34453; raw ATP luminescence, replicate 2 = 42323.
CG32066 #2 scored raw ATP luminescence, replicate 1 = 71503; raw ATP luminescence, replicate 2 = 70890.
BigH1 gave raw ATP luminescence, replicate 1 = 71960; raw ATP luminescence, replicate 2 = 33823.
CG5612 showed raw ATP luminescence, replicate 1 = 34450; raw ATP luminescence, replicate 2 = 40450.
Against CG14566 the deposit lists raw ATP luminescence, replicate 1 = 71390; raw ATP luminescence, replicate 2 = 62763.
